We go through 1 substance from patent US10088479B2, “Biomarker and uses thereof” (ISIS INNOVATION LIMITED, priority 2014, dated 2018).

By UniProt entry, the sequences of proteins in these tests, tags left out. Residues count along the entry.
UniProt P24821, residues 23-173: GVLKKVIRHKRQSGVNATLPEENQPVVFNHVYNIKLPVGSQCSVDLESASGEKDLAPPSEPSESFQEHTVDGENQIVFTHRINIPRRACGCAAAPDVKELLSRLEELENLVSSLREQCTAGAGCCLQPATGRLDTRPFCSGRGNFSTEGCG

Results are given in words; binding and its absence hold for the method and conditions named. Some entries that bind do so weakly or less than the wild type.

This test concerns the target recombinant TA (assembly) domain of human tenascin-C (human) (UniProt P24821). The test can be described thus: self-association of the refolded TA domain; method not described.

For the substance “recombinant TA (assembly) domain of human tenascin-C (from UniProt P24821 23-173)”, the binding entry was “binds”.
